Measured values published in US20220010021A1.
Residue numbers refer to the chain shown, from its start. These are yes or no findings as the source states them, for the method shown. Some binding calls cover weakened binding; strength is not graded here. Each block holds one binder with its values, some of them ahead of it.

Protein sequences, listed by entry. Tags and fused reporters are not part of them. Residues count along the entry.
UniProt Q86Z14, residues 53-997: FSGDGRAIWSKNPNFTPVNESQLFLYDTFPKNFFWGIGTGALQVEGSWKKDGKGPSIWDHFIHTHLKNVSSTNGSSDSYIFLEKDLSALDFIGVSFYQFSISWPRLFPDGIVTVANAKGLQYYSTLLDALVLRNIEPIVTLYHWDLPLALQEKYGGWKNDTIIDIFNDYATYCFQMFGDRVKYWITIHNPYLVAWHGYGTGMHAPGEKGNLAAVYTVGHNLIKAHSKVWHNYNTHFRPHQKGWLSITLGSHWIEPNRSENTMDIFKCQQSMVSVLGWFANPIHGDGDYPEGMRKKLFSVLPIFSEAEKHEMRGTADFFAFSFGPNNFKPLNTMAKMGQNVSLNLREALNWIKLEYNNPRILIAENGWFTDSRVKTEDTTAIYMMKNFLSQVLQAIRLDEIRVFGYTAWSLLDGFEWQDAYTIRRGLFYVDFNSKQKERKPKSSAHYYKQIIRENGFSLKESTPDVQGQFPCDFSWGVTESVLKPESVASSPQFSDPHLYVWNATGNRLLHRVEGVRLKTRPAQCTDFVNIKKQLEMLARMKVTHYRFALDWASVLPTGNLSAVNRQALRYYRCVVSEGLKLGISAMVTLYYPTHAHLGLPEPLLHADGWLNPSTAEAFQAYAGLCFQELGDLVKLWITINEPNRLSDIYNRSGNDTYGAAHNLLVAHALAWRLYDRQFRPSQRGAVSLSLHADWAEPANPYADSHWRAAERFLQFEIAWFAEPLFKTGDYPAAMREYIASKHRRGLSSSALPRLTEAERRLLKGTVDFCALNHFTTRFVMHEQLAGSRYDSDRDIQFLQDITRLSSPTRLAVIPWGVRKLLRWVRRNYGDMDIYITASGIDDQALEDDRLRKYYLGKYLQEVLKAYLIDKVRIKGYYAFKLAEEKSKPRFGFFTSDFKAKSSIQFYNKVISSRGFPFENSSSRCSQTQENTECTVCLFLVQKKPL

Target: human beta-Klotho (KLB) (human) (UniProt Q86Z14)
Assay: SPR on human KLB; koff (panel C) and KD (panel D), mean +/- SEM, n=3 [D]

binding: binds
B1: Ab0327 (antibody, IgG4, V domains shown)
VH: QVTLKESGPVLVKPTETLTLTCTVSGFSLNNARVGVSWIRQPPGKALEWLAHIFSNDEKSYSTSLKSRLTISKDTSKSQVVLTMTNMDPVDTATYYCARSVVTGGYYYEGMDVWGQGTTVTVSS
VL: SYVLTQPPSVSVAPGQTARITCGGSNIGSESVHWYQQKPGQAPVLVVYYYSDRPSGIPERFSGSNSGNTATLTISRVEAGDEADYYCQVWEGESDHVVFGGGTKLTVLG

binding: binds
B2: Ab0337 (antibody, IgG4, V domains shown)
VH: B1 VH
VL: B1 VL with Y49S, Y50H
